Reference: the supplement of paper PMC4683952
Structures can show the parent of a compound that is named as a salt. The whole screen tested about 1,200 compounds, of which about 50 (4%) showed activity. Rule as the data show it: all actives reach 1.3 or more but so do some inactives. The list shows a part of the results.

Each compound was assayed on Lgr5 (MarsCy1-Lgr5-EGFP, U2OS) (assay: cell-surface Lgr5 expression (SCi1 fluorescence, background-subtracted) relative to WT DMSO (fold of DMSO control); higher = more Lgr5 at the plasma membrane, active = hit call of the paper). Conditions: U2OS MarsCy1-Lgr5-EGFP stable; treatment time: overnight; 16 µM; library: Johns Hopkins Clinical Compound Library.
In the case of `COc1cc(-c2ccc(=O)[nH]n2)ccc1OC(F)F` [Zardaverine], the “cell-surface Lgr5 expression” value is reported as inactive: 0.72. `Cl.N=C(N)NCCC[C@H](N)C(=O)O` [L-Arginine hydrochloride] was tested, and the “cell-surface Lgr5 expression” value was inactive: 0.829. For `CC1=C(/C=C/C(C)=C/C=C/C(C)=C\C(=O)O)C(C)(C)CCC1` [Isotretinoin (13-cis-retinoic acid)], the “cell-surface Lgr5 expression” value was inactive: 1.08. For `CN(C)CCOC(C)(c1ccccc1)c1ccc(Cl)cc1` (configuration not stated) [Chlorphenoxamine hydrochloride], the “cell-surface Lgr5 expression” value was inactive: 1.15. For `O=C([O-])[O-].[Li+].[Li+]` [Lithium carbonate], the “cell-surface Lgr5 expression” value was inactive: 0.278. `Cc1cc(NS(=O)(=O)c2ccc(N)cc2)nc(C)n1` [Sulfisomidine] was tested, and the “cell-surface Lgr5 expression” value was inactive: 1.33. For `CCCCCCCCCCCCCCCCOP(=O)([O-])OCC[N+](C)(C)C` [Miltefosine (hexadecyl phosphocholine)], the “cell-surface Lgr5 expression” value was inactive: 1.05. In the case of `CN(C)c1ccc(O)c2c1C[C@H]1C[C@H]3[C@H](N(C)C)C(O)=C(C(N)=O)C(=O)[C@@]3(O)C(O)=C1C2=O` [Minocycline hydrochloride salt], the “cell-surface Lgr5 expression” value is reported as inactive: 0.437. In the case of `C[N+](C)(C)CCOC(=O)CCC(=O)OCC[N+](C)(C)C` [Succinylcholine chloride dihydrate], the “cell-surface Lgr5 expression” value is reported as inactive: 1.22. In the case of `Nc1nc(NC2CC2)c2ncn([C@H]3C=C[C@@H](CO)C3)c2n1` [Abacavir], the “cell-surface Lgr5 expression” value is reported as inactive: 1.08. With `CCN(CC)CCNc1ccc(CO)c2sc3ccccc3c(=O)c12` [Hycanthone] the “cell-surface Lgr5 expression” value was inactive: 1.28. `CNC(C)CCC=C(C)C` (configuration not stated) [Isometheptene mucate] was tested, and the “cell-surface Lgr5 expression” value was inactive: 0.732. In the case of `CC(C)(C)CC(C)(C)c1ccc(O)c(Cc2ccc(Cl)cc2Cl)c1` [Clofoctol], the “cell-surface Lgr5 expression” value is reported as inactive: 1.06. `OC(CCCN1CCCCC1)(c1ccccc1)c1ccccc1` [Difenidol hydrochloride (Diphenidol)] was tested, and the “cell-surface Lgr5 expression” value was inactive: 1.08. In the case of `OC(CCCN1CCCCC1)(c1ccccc1)c1ccccc1` [Diphenidol], the “cell-surface Lgr5 expression” value is reported as inactive: 1.13. In the case of `C[C@]12CC[C@@H]3c4ccc(OS(=O)(=O)O)cc4CC[C@H]3[C@@H]1CCC2=O` [Estrone-3-sulfate], the “cell-surface Lgr5 expression” value is reported as inactive: 0.885. With `CCCCCCCCCCCC[N+](C)(C)CCOc1ccccc1` [Domiphen bromide] the “cell-surface Lgr5 expression” value was inactive: 0.864. In the case of `C=CCSCC1Nc2cc(Cl)c(S(N)(=O)=O)cc2S(=O)(=O)N1` (configuration not stated) [Althiazide], the “cell-surface Lgr5 expression” value is reported as inactive: 1.27. `Cc1cc(-c2ccc(/N=N/c3ccc4c(S(=O)(=O)O)cc(S(=O)(=O)O)c(N)c4c3O)c(C)c2)ccc1/N=N/c1ccc2c(S(=O)(=O)O)cc(S(=O)(=O)O)c(N)c2c1O` [Evans blue] was tested, and the “cell-surface Lgr5 expression” value was inactive: 1.18. For `c1ccc(CN(CC2=NCCN2)c2ccccc2)cc1` [Antazoline], the “cell-surface Lgr5 expression” value was inactive: 1.21. `c1ccc(CN(CC2=NCCN2)c2ccccc2)cc1` [Antazoline phosphate salt] was tested, and the “cell-surface Lgr5 expression” value was inactive: 1.28. `CN(C)CC/C=C1/c2ccccc2COc2ccc(CC(=O)O)cc21` [Olopatadine hydrochloride ophthalmic solution] was tested, and the “cell-surface Lgr5 expression” value was inactive: 0.992. With `CC(=O)Nc1ccc(OC(C)(C)C)cc1` [Butacetin (4-Butoxyacetanilide)] the “cell-surface Lgr5 expression” value was inactive: 1.28. In the case of `CCOC(C)OCC` [Acetal], the “cell-surface Lgr5 expression” value is reported as inactive: 1.06. With `CC(=O)OCC(=O)[C@H]1CC[C@H]2[C@@H]3CCC4=CC(=O)CC[C@]4(C)[C@H]3CC[C@]12C` the “cell-surface Lgr5 expression” value was inactive: 1.01. `N=C(N)NCCN1CCCCCCC1` [Guanethidine] was tested, and the “cell-surface Lgr5 expression” value was inactive: 0.924. In the case of `C#C[C@]1(O)CC[C@H]2[C@@H]3CCC4=CC(=O)CC[C@@H]4[C@H]3CC[C@@]21CC` [Norgestrel D(-) (Levonorgestrel)], the “cell-surface Lgr5 expression” value is reported as inactive: 1.29. In the case of `CC(=O)O[C@H]1CC[C@@]2(C)C(=CC[C@H]3[C@@H]4CC[C@H](C(C)=O)[C@@]4(C)CC[C@@H]32)C1` [Pregnenolone acetate], the “cell-surface Lgr5 expression” value is reported as inactive: 0.869. `C[C@]1(Cn2ccnn2)[C@H](C(=O)O)N2C(=O)C[C@H]2S1(=O)=O` [Tazobactam sodium salt] was tested, and the “cell-surface Lgr5 expression” value was inactive: 1.09. With `CC(=O)OCC(=O)[C@@]1(OC(C)=O)[C@@H](C)C[C@H]2[C@@H]3C[C@H](F)C4=CC(=O)C=C[C@]4(C)[C@@]3(F)[C@@H](O)C[C@@]21C` [Diflorasone diacetate] the “cell-surface Lgr5 expression” value was active: 1.67. In the case of `CCN(CC)CCOCCOC(=O)C(CC)(CC)c1ccccc1` [Oxeladin citrate salt], the “cell-surface Lgr5 expression” value is reported as active: 1.48. `O=P([O-])(O)O.[Na+]` [Sodium phosphate monobasic] was tested, and the “cell-surface Lgr5 expression” value was inactive: 1.11. In the case of `O=C([O-])/C=C/C(=O)[O-].[Fe+2]` [Ferrous fumarate], the “cell-surface Lgr5 expression” value is reported as inactive: 1.1. For `CCCOc1ccc(C(=O)OCCN(CC)CC)cc1N` [Proparacaine], the “cell-surface Lgr5 expression” value was inactive: 1.22. `C=CCCCCCCCCC(=O)[O-].C=CCCCCCCCCC(=O)[O-].[Zn+2]` [Zinc undecylenate] was tested, and the “cell-surface Lgr5 expression” value was inactive: 0.599. In the case of `NC1CCN(c2nc3c(cc2F)c(=O)c(C(=O)O)cn3-c2ccc(F)cc2F)C1` (configuration not stated) [Tosufloxacin], the “cell-surface Lgr5 expression” value is reported as inactive: 0.98. With `CCNC(=O)/C=C/c1cccc(Br)c1` [Cinromide (trans-3-bromo-n-ethyl-cinnamide)] the “cell-surface Lgr5 expression” value was inactive: 1.15. `COC(=O)Nc1nc2cc([S+]([O-])c3ccccc3)ccc2[nH]1` (configuration not stated) [Oxfendazole] was tested, and the “cell-surface Lgr5 expression” value was inactive: 1.18. With `N=C(N)NCCC[C@H](N)C(=O)O.N[C@@H](CCC(=O)O)C(=O)O` [Arginine Glutamate (L-Arginine L-Glutamate salt)] the “cell-surface Lgr5 expression” value was inactive: 1.03. For `COc1ccccc1OCC(O)COC(N)=O` (configuration not stated) [Methocarbamol (Guaiacol Glyceryl Ether Carbamate)], the “cell-surface Lgr5 expression” value was inactive: 1.14. With `Nc1ccn([C@@H]2CS[C@H](CO)O2)c(=O)n1` [Lamivudine] the “cell-surface Lgr5 expression” value was inactive: 0.724. In the case of `NC(=O)[C@@H]1CCCN1C(=O)[C@H](Cc1c[nH]cn1)NC(=O)[C@@H]1CCC(=O)N1`, the “cell-surface Lgr5 expression” value is reported as inactive: 0.977. `O=C(c1ccccc1)c1ccc2n1CCC2C(=O)O` (configuration not stated) [Ketorolac] was tested, and the “cell-surface Lgr5 expression” value was inactive: 1.11. `CCOC(=O)[C@@](C)(N)Cc1ccc(O)c(O)c1` [Methyldopate hydrochloride] was tested, and the “cell-surface Lgr5 expression” value was inactive: 1.29. `COc1c(N2CCNC(C)C2)c(F)cc2c(=O)c(C(=O)O)cn(C3CC3)c12` (configuration not stated) [Gatifloxacin] was tested, and the “cell-surface Lgr5 expression” value was inactive: 1.01. With `OCc1ccccc1O` [Salicyl alcohol (2-Hydroxybenzyl alcohol)] the “cell-surface Lgr5 expression” value was inactive: 0.961. In the case of `CN1Cc2c(N)cccc2C(c2ccccc2)C1` (configuration not stated) [Nomifensine maleate], the “cell-surface Lgr5 expression” value is reported as inactive: 0.436. In the case of `FC(F)(F)COCC(F)(F)F` [Flurothyl (2,2,2-Trifluoroethyl ether)], the “cell-surface Lgr5 expression” value is reported as inactive: 0.97. With `O=C1NC(=O)C(c2ccccc2)(c2ccccc2)N1` [Phenytoin (5,5Diphenylhydantoin sodium salt)] the “cell-surface Lgr5 expression” value was inactive: 0.534. In the case of `O=C1CCC(c2ccccc2)(C2CCN(Cc3ccccc3)CC2)C(=O)N1` (configuration not stated) [Benzetimide], the “cell-surface Lgr5 expression” value is reported as inactive: 1.09. With `CCCCCCCCCCCCCCOS(=O)(=O)O` [Tetradecyl sulfate, sodium salt, 95%] the “cell-surface Lgr5 expression” value was inactive: 1.28. `CN[C@H](CC(C)C)C(=O)N[C@H]1C(=O)N[C@@H](CC(N)=O)C(=O)N[C@H]2C(=O)N[C@H]3C(=O)N[C@H](C(=O)N[C@H](C(=O)O)c4cc(O)cc(O)c4-c4cc3ccc4O)[C@H](O)c3ccc(c(Cl)c3)Oc3cc2cc(c3O[C@@H]2O[C@H](CO)[C@@H](O)[C@H](O)[C@H]2O[C@H]2C[C@](C)(N)[C@H](O)[C@H](C)O2)Oc2ccc(cc2Cl)[C@H]1O` [Vancomycin HCL hydrate] was tested, and the “cell-surface Lgr5 expression” value was inactive: 1.14. `O=C(CCCl)NCc1ccccc1` [Beclamide (n-benzyl 3 chloropropionamide)] was tested, and the “cell-surface Lgr5 expression” value was inactive: 0.654. With `NC(=O)c1ncn([C@@H]2O[C@H](CO)[C@@H](O)[C@H]2O)n1` [Ribavirin] the “cell-surface Lgr5 expression” value was inactive: 0.899. With `CC(C)COCC(CN(Cc1ccccc1)c1ccccc1)N1CCCC1` (configuration not stated) [Bepridil] the “cell-surface Lgr5 expression” value was active: 1.31. `O=C(O)c1cc(=O)c2ccccc2o1` was tested, and the “cell-surface Lgr5 expression” value was inactive: 0.949. In the case of `NS(=O)(=O)c1cc(C(=O)O)c(NCc2ccco2)cc1Cl` [Furosemide], the “cell-surface Lgr5 expression” value is reported as inactive: 1.11. `Cc1cc(C2CCCCC2)n(O)c(=O)c1` [Ciclopirox olamine] was tested, and the “cell-surface Lgr5 expression” value was inactive: 0.528. `COc1cc(C(=O)NS(=O)(=O)c2ccccc2C)ccc1Cc1cn(C)c2ccc(NC(=O)OC3CCCC3)cc12` [Zafirlukast] was tested, and the “cell-surface Lgr5 expression” value was inactive: 1.12. For `CCO` [Ethanol], the “cell-surface Lgr5 expression” value was inactive: 0.993. With `C=C[C@H]1CN2CC[C@H]1C[C@H]2[C@H](O)c1ccnc2ccc(OC)cc12.NC(N)=O` [Quinine urea hydrochloride] the “cell-surface Lgr5 expression” value was inactive: 1.39. `O=C(Nc1ccc(C(=O)O)c(O)c1)c1ccccc1` was tested, and the “cell-surface Lgr5 expression” value was inactive: 0.869. For `CCCCOC(=O)c1ccc(N)cc1` [Butamben (n-butyl p aminobenzoate)], the “cell-surface Lgr5 expression” value was inactive: 1. In the case of `CCCCC1=NC2(CCCC2)C(=O)N1Cc1ccc(-c2ccccc2-c2nnn[nH]2)cc1` [Irbesartan], the “cell-surface Lgr5 expression” value is reported as inactive: 0.824. For `CC(C)COC(=O)OCN1C(=O)CN(CCN2CC(=O)N(COC(=O)OCC(C)C)C(=O)C2)CC1=O` [Sobuzoxane], the “cell-surface Lgr5 expression” value was inactive: 0.958. In the case of `CCCCCCn1c(=O)c2c(ncn2C)n(C)c1=O` [Pentifylline], the “cell-surface Lgr5 expression” value is reported as inactive: 1.18. For `COCC1=C(C(=O)OC(C)OC(=O)OC(C)C)N2C(=O)[C@@H](NC(=O)/C(=N\OC)c3csc(N)n3)[C@H]2SC1` (some centres not stated) [Cefpodoxime proxetil], the “cell-surface Lgr5 expression” value was inactive: 0.424.
